From US20180327493A1
These are yes or no findings as the source states them, for the method shown. Some results given as binding are weak or reduced against the parent protein; the word gives no strength.

Molecular target: T1, murine CD84 on cells (B220+CD5+ splenic cells of TCL-1 mice, M210B4 stromal cells) (mouse) (UniProt Q18PI6)
T1 sequence (looked up): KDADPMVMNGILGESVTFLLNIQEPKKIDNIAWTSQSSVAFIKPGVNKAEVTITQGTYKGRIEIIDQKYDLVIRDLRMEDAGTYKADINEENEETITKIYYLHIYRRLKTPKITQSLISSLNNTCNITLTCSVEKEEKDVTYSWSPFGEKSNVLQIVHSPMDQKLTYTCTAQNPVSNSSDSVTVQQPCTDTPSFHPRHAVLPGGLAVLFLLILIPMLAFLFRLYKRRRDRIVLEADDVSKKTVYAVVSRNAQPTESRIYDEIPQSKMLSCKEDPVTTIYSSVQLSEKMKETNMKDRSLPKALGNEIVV
Test: incubation with B220+CD5+ splenic cells of TCL-1 mice; cross-reactivity inferred from Annexin-7AAD cell death

B1: anti-CD84 antibody from the B4 hybridoma (antibody, V domains shown)
VH: EVKLVESGAELARPGASVKLSCKASGYTFTSYWMQWVKQRPGQGLEWIGAIYPGDGDTRYTQKFKGKATLTADKSSSTAYMQLSSLASEDSAVYYCARLLRTYWYFDVWGAGTTVTVSS
VL: DIVLTQSHKFMSTSVGDRVSITCKASQDVGTAVAWYQQKPGQSPKLLIYWASTRHTGVPDRFTGSGSGTDFTLTISNVQSEDLADYFCQQYSSYPYTFGGGTKLELKR
In the case of B1, the binding is reported as “binds”.
